# Reference: patent US9533946B1, “N-carbamoylputrescine to enhance muscle protein synthesis” (CITRAGE, priority 2016, dated 2017)
# Assay: Plasma biological parameters after NCP-supplemented diet in rats
# Assay type: in vivo
# Description: Eight-week old Sprague-Dawley rats (Charles Rivers, Lyon, France) were used. They were placed in individual cages and acclimatized for two weeks to our animal facility. During this period they received standard rodent chow (A04, UAR, Villemoisson-sur-Orge, France) and water ad libitum.
# After acclimatization twenty eight-month old rats were randomized into three groups in order to receive for two weeks a standard diet either alone (n=6; control group) or supplemented with NCP either 5 mg/kg/d (n=7, NCP5 group) or 50 mg/kg/d (n=7; NCP50 group). Their weight, behaviour and mortality were monitored throughout the feeding period.
# At the end of the feeding period, the rats, in the fasted state, were anesthetized by isoflurane inhalation and euthanized by decapitation.
# Mixed blood was collected onto heparinized tubes and rapidly centrifuged. The liver was immediately removed and weighed, and a sample was cut off, frozen in liquid nitrogen, and stored at −80° C. until analysis. For the jejunum and ileum, the intestine was washed with cold NaCl (0.9%) and reverted. Thereafter the intestinal mucosa was scraped, rapidly frozen in liquid nitrogen, and stored at −80° C. until analysis. Two muscles of the hindlimb, tibialis (rich in type II fibres) and soleus (rich in type I fibres), and the right kidney were rapidly removed, weighed, frozen in liquid nitrogen, and stored at −80° C. until analysis. Body composition was assessed by dissection and lean mass (carcass), visceral fat mass, sub-cutaneous fat mass (subcutaneous fat and skin) and mass of the viscera were determined.
# Biological parameters studied were: • in tissues: NCP, protein and amino acid contents • in plasma: amino acids, liver function tests (plasma aspartate aminotransferase, alanine aminotransferase, alkaline phosphatase, and bilirubin), muscle enzymes (plasma creatine kinase, and lactate dehydrogenase), plasma electrolytes (sodium, potassium, chloride, bicarbonates), total protein, urea, creatinine, calcium, phosphate, magnesium, uric acid, glucose, cholesterol and triglycerides. […]
smiles,measurement,setting,value
"NCCCCNC(N)=O [NCP, 1-(4-aminobutyl) urea]",other plasma amino acids,NCP 5 and 50 mg/kg/d vs control,No differences
same,"plasma glutamine, dose-effect relationship","NCP 5 and 50 mg/kg/d, p=0.06",trend for a NCP dose-effect relationship
same,plasma glutamine levels,"NCP50 group vs controls, FIG. 1",significantly lower
